Assay results taken from PubChem BioAssay AID1347076 (National Center for Advancing Translational Sciences (NCATS), 2019).
Several values for one entry are separate records, joined by “and”; a condition that tells them apart may be missing. Equal values may be shown once. Screen size: about 400,000 compounds; about 13,000 (3.2%) were called active. The inconclusive results got no clear call from the source; some entries with a clear call stand among them for comparison. Calls follow the shape of the dose curve; as a rule, active = well fitted cell-killing curve with a large enough effect; inconclusive = small, poorly fitted or top-dose-only effect, or effect the other way; inactive = flat fitted curve, though single readings scatter. Potencies of inconclusive entries are doubtful fits and often do not repeat.

Experiment: qHTS assay for MDR1-selective chemotherapeutics: Primary screen using the drug-selected MDR subline cells KB-V1; also: nearly all actives have a fitted effect of over 60% in size
Conditions: KB-V1 MDR cells viability, CellTiter-Glo, 72 h; activity change, negative = cytotoxicity: at 46.1 µM (top of the series)
In short: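 KB-V1, DMEM (no phenol red) + 10% FBS; cpd pin-transferred, titration series; 72 h, 37 degrees C; CellTiter-Glo, luminescence. Data normalized, curve-fit.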
% is scaled to controls: 0 for no effect and ±100 for the full control effect; potency is read from the fitted curve at half-maximal effect.

| SMILES | Potency | activity change, negative = cytotoxicity |
| --- | --- | --- |
| C=C(C)CNC(=O)c1ccc2nc(Cc3ccc(OC)cc3)oc2c1 | inconclusive: 14.6 µM [cytotoxic, partial curve] | – |
| O=C(CSc1ncnc2ccccc12)Nc1cc(S(=O)(=O)N2CCCCC2)ccc1Cl | inconclusive: 29.1 µM [cytotoxic, partial curve, poor fit] | – |
| COc1ccc([C@H]2CC(=O)C=C(c3cc(C=O)ccc3OC)C2)cc1OC | – | inactive: -14.8% |
| CSC1=NC(C(Cl)(Cl)Cl)N=C(c2ccccc2)N1 (stereo not given) | active: 5.8 µM | – |
| CCc1nc2ccccc2nc1N1CCN(S(=O)(=O)c2ccccc2)CC1 | inconclusive: 23.1 µM [cytotoxic, single point] | – |
| O=S(=O)(NCC1CCN(S(=O)(=O)c2ccccc2)CC1)c1ccccc1 | inconclusive: 16.4 µM [cytotoxic, partial curve] | – |
| S=C(NCCCc1cnc[nH]1)NCCCN(Cc1ccc(Cl)cc1)c1ccc(Br)cc1 | – | inactive: -2.27% |
| O=C(O)c1cc(NC(=O)c2ccccc2F)cc(NC(=O)c2ccccc2F)c1 | inconclusive: 29.1 µM [rising, single point] | – |
| COc1ccc(OC)c(Cc2cnc3nc(N)nc(N)c3c2C)c1 | active: 10.3 µM | – |
| CC1(C(=O)NS(=O)(=O)Cc2cccc(Cl)c2)CCN1C(=O)C1(c2ccc(Cl)cc2)CCC1 (stereo not given) | – | inactive: -6.68% |
| CNC(=O)c1[nH]nc2c1CCc1cc(OC)ccc1-2 | – | inactive: 15.5% |
| CC1CCN(CC(=O)N2CCCc3c2c(=O)oc2ccc(OCc4ccccc4)cc32)CC1 | inconclusive: 25.9 µM [cytotoxic, single point] and inconclusive: 29.1 µM [cytotoxic, single point] | – |
| CCOC(=O)c1cn(Cc2ccc(Cl)cc2Cl)c2cc(C)nn2c1=O | inconclusive: 29.1 µM [cytotoxic, single point] | – |
| COc1ccc(C(C)NC(=O)c2ccccc2Cl)cc1OC (stereo not given) | inconclusive: 16.4 µM [cytotoxic, partial curve, poor fit] | – |
| O=c1[nH]nc(-c2ccccc2)c2ccccc12 | – | inactive: -3.9% |
| CC(C)(C)n1ncc2c(=O)n(Cc3cccc(Cn4cnc5c(cnn5C(C)(C)C)c4=O)c3F)cnc21 | inconclusive: 16.4 µM [cytotoxic, single point] | – |
| O=C(CSCc1c(Cl)cccc1Cl)Nc1ccccc1-c1ccccc1 | inconclusive: 20.6 µM [cytotoxic, single point] | – |
| Cc1ccc(S(=O)(=O)Nc2cc(C(F)(F)F)ccc2N2CCOCC2)c(C)c1 | inconclusive: 29.1 µM [cytotoxic, single point] | – |
| CC1(C(=O)Nc2cccc(C(F)(F)F)c2)Cc2ccccc2C(=O)O1 (stereo not given) | – | inactive: -17.1% |
| C=C(C)c1nc(N)nc(N)n1 | inconclusive: 32.6 µM [cytotoxic, single point] | – |
| O=C(NCc1ccc(Cl)cc1)C(=O)NCC1OCCN1C(=O)c1ccc(Cl)cc1 (stereo not given) | inconclusive: 11.6 µM [cytotoxic, partial curve] | – |
| Cc1c(C(=O)Nc2ccc(Br)cc2F)oc2ccc(S(=O)(=O)N3CCCCC3)cc12 | – | inactive: 14.8% |
| CC(C)(C)S(=O)N1Cc2cc(=O)n(Cc3ccccc3)c(CCO)c2[C@H]1CCO (stereo not given in full) | – | inactive: -24.6% |
| O=C(CSc1nc(-c2ccc(Cl)cc2)cs1)Nc1cccc([N+](=O)[O-])c1 | inconclusive: 18.4 µM [cytotoxic, single point] | – |

Two entries drawn at random from the list so far:

| SMILES | Potency | activity change, negative = cytotoxicity |
| --- | --- | --- |
| CCc1nc2ccccc2nc1N1CCN(S(=O)(=O)c2ccccc2)CC1 | inconclusive: 23.1 µM [cytotoxic, single point] | – |
| COc1ccc(OC)c(Cc2cnc3nc(N)nc(N)c3c2C)c1 | active: 10.3 µM | – |

Additional results follow:

| SMILES | Potency | activity change, negative = cytotoxicity |
| --- | --- | --- |
| O=C(O)CCCCCNC(=O)CCn1cnc2ccccc2c1=O | inconclusive: 29.1 µM [rising, single point] | – |
| CC1c2cc3c(cc2CCN1CC(=O)Nc1ccccc1)OCCCO3 (stereo not given) | inconclusive: 16.4 µM [cytotoxic, single point] | – |
| COc1ccccc1NC(=O)c1nc(S(=O)(=O)Cc2ccccc2)ncc1Cl | inconclusive: 4.61 µM [cytotoxic, full curve, poor fit] | – |
| O=C(CCc1nc2ccccc2c(=O)[nH]1)NNC(=O)c1cccc(Cl)c1 | inconclusive: 9.2 µM [rising, partial curve, poor fit] | – |
| CCc1ccc(C(O)c2ncc(-c3cccc(OC)c3)[nH]2)cc1 (stereo not given) | – | inactive: -1.78% |
| O=C(COC(=O)c1cc(=O)[nH]c2ccccc12)NCCc1ccccc1 | – | inactive: -0.914% |
| Cc1ccc(SCC(=O)Nc2ccc(-c3nnc(-c4ccco4)o3)cc2)cc1 | – | inactive: -17.2% |
| Cc1ccc(C(c2nnnn2C2CCCC2)N2CCc3ccccc32)cc1 (stereo not given) | active: 20.6 µM | – |
| O=C(Nc1ccc(Cl)c(C(F)(F)F)c1)[C@@H]1CC=C[C@@H]2CCN(C3CC3)C(=O)[C@@H]21 | inconclusive: 23.1 µM [cytotoxic, partial curve, poor fit] | – |
| NC(=O)CC(NC(=O)c1cccc(Br)c1)c1ccc(NC2CCN(Cc3ccccc3)CC2)c([N+](=O)[O-])c1 (stereo not given) | inconclusive: 14.6 µM [rising, partial curve] | – |
| NCC(=O)Nc1ccc(Br)cc1 | – | inactive: 4.73% |
| COCCNC(=O)C1CCCN(C(=O)C2(c3ccc(Cl)cc3)CCCC2)CC1 (stereo not given) | – | inactive: -4.66% |
| O=C(CN1CCOCC1)Nc1ccccc1Sc1ccc(Cl)cc1 | inconclusive: 16.4 µM [cytotoxic, partial curve, poor fit] | – |
| Cc1ncc(COCc2ccccc2)c(CO)c1OCc1ccccc1 | active: 18.4 µM | – |
| O=C(NC(=S)Nc1ccccc1N1CCCC1)c1ccc([N+](=O)[O-])cc1 | inconclusive: 23.1 µM [cytotoxic, single point] | – |
| CCOCCCNC(=O)C(c1ccc(OC)cc1)N(Cc1cccs1)C(=O)c1ccccc1O (stereo not given) | inconclusive: 20.6 µM [cytotoxic, single point] | – |
| CC(C)(C)c1ccc(C(=O)N2CCC(C(=O)NC3CCCCCC3)CC2)cc1 | inconclusive: 13 µM [cytotoxic, partial curve] | – |
| Cc1ccc(CS(=O)Cc2ccc(C(=O)N3CCN(c4cccc(C)c4C)CC3)o2)cc1 (stereo not given) | inconclusive: 16.4 µM [cytotoxic, partial curve] | – |
| O=C(CN1CCN(S(=O)(=O)c2ccccc2)CC1)Nc1ccc2c(c1)CCC2 | inconclusive: 14.6 µM [cytotoxic, single point] | – |
| O=C(COc1ccc(S(=O)(=O)N2CCCCC2)cc1)NCC1CCCO1 (stereo not given) | – | inactive: 10.1% |
| CN(C)S(=O)(=O)N(CC(=O)Nc1ccc(F)c(F)c1)c1ccccc1 | active: 20.6 µM | – |
| Cc1ccc(NC2=NCC(Cc3ccc(Br)cc3)S2)cc1 (stereo not given) | inconclusive: 29.1 µM [cytotoxic, single point] | – |
| CCN(CC)c1ccc(NC(=O)COc2ccccc2C)cc1S(=O)(=O)Nc1ccccc1OC | inconclusive: 5.17 µM [cytotoxic, full curve] | – |
| CCN(CC)c1ncnc2c1ncn2[C@H]1CN(Cc2ccccc2)C[C@@H](CO)O1 | – | inactive: -4.53% |

| SMILES | Potency | activity change, negative = cytotoxicity |
| --- | --- | --- |
| O=C(NCCOc1ccccc1)c1ccccc1NC(=O)C1CCCO1 (stereo not given) | inconclusive: 9.2 µM [cytotoxic, partial curve] | – |
| Cc1cc2n(n1)SC(Nc1cccc3ccccc13)N2 (stereo not given) | – | inactive: 4.31% |
| CC(C)(C)NC(=O)CON=C1c2ccccc2-c2ccccc21 | active: 16.4 µM | – |
| O=C(O)c1cc2ccccc2c(N=Nc2cccnc2)c1O | inconclusive: 14.6 µM [cytotoxic, partial curve] | – |
| COc1cc([N+](=O)[O-])ccc1NC(=O)NCC1CCN(Cc2ccc(Cl)cc2)CC1 | – | inactive: 2.84% |
| Cc1ccc2nc(SCc3nnc(-c4ccccc4)o3)[nH]c2c1 | inconclusive: 16.4 µM [cytotoxic, partial curve, poor fit] | – |
| COc1c(Cl)cc(Br)c(OC)c1C(=O)NC(=O)Nc1nc(C)cc(C)n1 | inconclusive: 20.6 µM [cytotoxic, partial curve] | – |
| COc1ccc(C[C@@H]2OC3(C=CC(=O)C=C3)O[C@H]2Cc2ccc(OC)cc2)cc1 | inconclusive: 0.58 µM [cytotoxic, full curve, poor fit] | – |
| Cc1ccc(-n2ncc3c(NNC(=O)Cc4ccccc4)ncnc32)cc1 | inconclusive: 23.1 µM [cytotoxic, partial curve, poor fit] | – |
| c1ccc(-n2cnc3cc(NCc4cccs4)ccc32)cc1 | active: 10.3 µM | – |
| Cc1nc(N2CCOCC2)c(C#N)c(C)c1Br | inconclusive: 15.8 µM [cytotoxic, single point] | – |
| O=S(=O)(c1cccc(C(F)(F)F)c1)N1CCC(CO)(CCCc2ccccc2)CC1 | – | inactive: -6.37% |
| Cc1nn(-c2ccccc2)c(C)c1S(=O)(=O)O | – | inactive: 10.1% |
| CCS(=O)(=O)N1CCN(C2CCC(C)CC2)CC1 (stereo not given) | – | inactive: -19.2% |
| COc1cc(-c2noc(C)c2C(=O)NCCCN2CCOCC2)cc(OC)c1OC | inconclusive: 0.0046 µM [rising, full curve, poor fit] | – |
| CCn1c(/C=C\c2ccccc2C)nc2ccccc2c1=O | inconclusive: 23.1 µM [cytotoxic, single point] | – |
| Cc1nn(C)c(Oc2ccc(Cl)cc2)c1C(=O)Nc1ccc(F)cc1F | inconclusive: 29.1 µM [cytotoxic, single point] | – |
| O=C(Nc1ccc(F)c(Cl)c1)c1cc(C2CCCN(S(=O)(=O)c3cccs3)C2)on1 (stereo not given) | – | inactive: -1.07% |
| Cc1ccccc1OCCC(=O)N1CCN(S(=O)(=O)c2ccc(Br)cc2)CC1 | inconclusive: 10.3 µM [cytotoxic, partial curve] | – |
| Cc1ccc(S(=O)(=O)c2cc3ccccc3nc2N)cc1 | inconclusive: 18.4 µM [cytotoxic, single point] | – |
| OCC(CO)(CO)N=Cc1c(O)ccc2ccccc12 | inconclusive: 23.1 µM [cytotoxic, single point] | – |
| Cc1cccc(-n2nnc(C(=O)NCc3ccccc3Cl)c2N)c1 | inconclusive: 16.4 µM [cytotoxic, partial curve] | – |
